Measurements as given in patent publication US5480777A (priority 1995, dated 1996).
Some compounds share one wording; it may come from a single statement.

Test system: phosphoenolpyruvate carboxylase (PEPC)
Format: biochemical, wheat germ

Structure (SMILES) | response of concentration-absorbance change curves | shape of absorbance change curves over the HCO3^- concentration range of interest
[K+].[O-][Cl+2]([O-])[O-] [KClO3] | linear response | essentially linear absorbance change curves
[K+].[O-][Cl+3]([O-])([O-])[O-] [KClO4] | linear response | essentially linear absorbance change curves
[I-].[K+] [KI] | linear response | essentially linear absorbance change curves
N#CS [KSCN, potassium thiocyanate] | linear response | essentially linear absorbance change curves
